Here are results for 10 molecules from doi:10.1101/2023.08.05.552118.

Sequences of proteins named here, by UniProt entry; tags and fusion partners are left off.
UniProt Q63HN8: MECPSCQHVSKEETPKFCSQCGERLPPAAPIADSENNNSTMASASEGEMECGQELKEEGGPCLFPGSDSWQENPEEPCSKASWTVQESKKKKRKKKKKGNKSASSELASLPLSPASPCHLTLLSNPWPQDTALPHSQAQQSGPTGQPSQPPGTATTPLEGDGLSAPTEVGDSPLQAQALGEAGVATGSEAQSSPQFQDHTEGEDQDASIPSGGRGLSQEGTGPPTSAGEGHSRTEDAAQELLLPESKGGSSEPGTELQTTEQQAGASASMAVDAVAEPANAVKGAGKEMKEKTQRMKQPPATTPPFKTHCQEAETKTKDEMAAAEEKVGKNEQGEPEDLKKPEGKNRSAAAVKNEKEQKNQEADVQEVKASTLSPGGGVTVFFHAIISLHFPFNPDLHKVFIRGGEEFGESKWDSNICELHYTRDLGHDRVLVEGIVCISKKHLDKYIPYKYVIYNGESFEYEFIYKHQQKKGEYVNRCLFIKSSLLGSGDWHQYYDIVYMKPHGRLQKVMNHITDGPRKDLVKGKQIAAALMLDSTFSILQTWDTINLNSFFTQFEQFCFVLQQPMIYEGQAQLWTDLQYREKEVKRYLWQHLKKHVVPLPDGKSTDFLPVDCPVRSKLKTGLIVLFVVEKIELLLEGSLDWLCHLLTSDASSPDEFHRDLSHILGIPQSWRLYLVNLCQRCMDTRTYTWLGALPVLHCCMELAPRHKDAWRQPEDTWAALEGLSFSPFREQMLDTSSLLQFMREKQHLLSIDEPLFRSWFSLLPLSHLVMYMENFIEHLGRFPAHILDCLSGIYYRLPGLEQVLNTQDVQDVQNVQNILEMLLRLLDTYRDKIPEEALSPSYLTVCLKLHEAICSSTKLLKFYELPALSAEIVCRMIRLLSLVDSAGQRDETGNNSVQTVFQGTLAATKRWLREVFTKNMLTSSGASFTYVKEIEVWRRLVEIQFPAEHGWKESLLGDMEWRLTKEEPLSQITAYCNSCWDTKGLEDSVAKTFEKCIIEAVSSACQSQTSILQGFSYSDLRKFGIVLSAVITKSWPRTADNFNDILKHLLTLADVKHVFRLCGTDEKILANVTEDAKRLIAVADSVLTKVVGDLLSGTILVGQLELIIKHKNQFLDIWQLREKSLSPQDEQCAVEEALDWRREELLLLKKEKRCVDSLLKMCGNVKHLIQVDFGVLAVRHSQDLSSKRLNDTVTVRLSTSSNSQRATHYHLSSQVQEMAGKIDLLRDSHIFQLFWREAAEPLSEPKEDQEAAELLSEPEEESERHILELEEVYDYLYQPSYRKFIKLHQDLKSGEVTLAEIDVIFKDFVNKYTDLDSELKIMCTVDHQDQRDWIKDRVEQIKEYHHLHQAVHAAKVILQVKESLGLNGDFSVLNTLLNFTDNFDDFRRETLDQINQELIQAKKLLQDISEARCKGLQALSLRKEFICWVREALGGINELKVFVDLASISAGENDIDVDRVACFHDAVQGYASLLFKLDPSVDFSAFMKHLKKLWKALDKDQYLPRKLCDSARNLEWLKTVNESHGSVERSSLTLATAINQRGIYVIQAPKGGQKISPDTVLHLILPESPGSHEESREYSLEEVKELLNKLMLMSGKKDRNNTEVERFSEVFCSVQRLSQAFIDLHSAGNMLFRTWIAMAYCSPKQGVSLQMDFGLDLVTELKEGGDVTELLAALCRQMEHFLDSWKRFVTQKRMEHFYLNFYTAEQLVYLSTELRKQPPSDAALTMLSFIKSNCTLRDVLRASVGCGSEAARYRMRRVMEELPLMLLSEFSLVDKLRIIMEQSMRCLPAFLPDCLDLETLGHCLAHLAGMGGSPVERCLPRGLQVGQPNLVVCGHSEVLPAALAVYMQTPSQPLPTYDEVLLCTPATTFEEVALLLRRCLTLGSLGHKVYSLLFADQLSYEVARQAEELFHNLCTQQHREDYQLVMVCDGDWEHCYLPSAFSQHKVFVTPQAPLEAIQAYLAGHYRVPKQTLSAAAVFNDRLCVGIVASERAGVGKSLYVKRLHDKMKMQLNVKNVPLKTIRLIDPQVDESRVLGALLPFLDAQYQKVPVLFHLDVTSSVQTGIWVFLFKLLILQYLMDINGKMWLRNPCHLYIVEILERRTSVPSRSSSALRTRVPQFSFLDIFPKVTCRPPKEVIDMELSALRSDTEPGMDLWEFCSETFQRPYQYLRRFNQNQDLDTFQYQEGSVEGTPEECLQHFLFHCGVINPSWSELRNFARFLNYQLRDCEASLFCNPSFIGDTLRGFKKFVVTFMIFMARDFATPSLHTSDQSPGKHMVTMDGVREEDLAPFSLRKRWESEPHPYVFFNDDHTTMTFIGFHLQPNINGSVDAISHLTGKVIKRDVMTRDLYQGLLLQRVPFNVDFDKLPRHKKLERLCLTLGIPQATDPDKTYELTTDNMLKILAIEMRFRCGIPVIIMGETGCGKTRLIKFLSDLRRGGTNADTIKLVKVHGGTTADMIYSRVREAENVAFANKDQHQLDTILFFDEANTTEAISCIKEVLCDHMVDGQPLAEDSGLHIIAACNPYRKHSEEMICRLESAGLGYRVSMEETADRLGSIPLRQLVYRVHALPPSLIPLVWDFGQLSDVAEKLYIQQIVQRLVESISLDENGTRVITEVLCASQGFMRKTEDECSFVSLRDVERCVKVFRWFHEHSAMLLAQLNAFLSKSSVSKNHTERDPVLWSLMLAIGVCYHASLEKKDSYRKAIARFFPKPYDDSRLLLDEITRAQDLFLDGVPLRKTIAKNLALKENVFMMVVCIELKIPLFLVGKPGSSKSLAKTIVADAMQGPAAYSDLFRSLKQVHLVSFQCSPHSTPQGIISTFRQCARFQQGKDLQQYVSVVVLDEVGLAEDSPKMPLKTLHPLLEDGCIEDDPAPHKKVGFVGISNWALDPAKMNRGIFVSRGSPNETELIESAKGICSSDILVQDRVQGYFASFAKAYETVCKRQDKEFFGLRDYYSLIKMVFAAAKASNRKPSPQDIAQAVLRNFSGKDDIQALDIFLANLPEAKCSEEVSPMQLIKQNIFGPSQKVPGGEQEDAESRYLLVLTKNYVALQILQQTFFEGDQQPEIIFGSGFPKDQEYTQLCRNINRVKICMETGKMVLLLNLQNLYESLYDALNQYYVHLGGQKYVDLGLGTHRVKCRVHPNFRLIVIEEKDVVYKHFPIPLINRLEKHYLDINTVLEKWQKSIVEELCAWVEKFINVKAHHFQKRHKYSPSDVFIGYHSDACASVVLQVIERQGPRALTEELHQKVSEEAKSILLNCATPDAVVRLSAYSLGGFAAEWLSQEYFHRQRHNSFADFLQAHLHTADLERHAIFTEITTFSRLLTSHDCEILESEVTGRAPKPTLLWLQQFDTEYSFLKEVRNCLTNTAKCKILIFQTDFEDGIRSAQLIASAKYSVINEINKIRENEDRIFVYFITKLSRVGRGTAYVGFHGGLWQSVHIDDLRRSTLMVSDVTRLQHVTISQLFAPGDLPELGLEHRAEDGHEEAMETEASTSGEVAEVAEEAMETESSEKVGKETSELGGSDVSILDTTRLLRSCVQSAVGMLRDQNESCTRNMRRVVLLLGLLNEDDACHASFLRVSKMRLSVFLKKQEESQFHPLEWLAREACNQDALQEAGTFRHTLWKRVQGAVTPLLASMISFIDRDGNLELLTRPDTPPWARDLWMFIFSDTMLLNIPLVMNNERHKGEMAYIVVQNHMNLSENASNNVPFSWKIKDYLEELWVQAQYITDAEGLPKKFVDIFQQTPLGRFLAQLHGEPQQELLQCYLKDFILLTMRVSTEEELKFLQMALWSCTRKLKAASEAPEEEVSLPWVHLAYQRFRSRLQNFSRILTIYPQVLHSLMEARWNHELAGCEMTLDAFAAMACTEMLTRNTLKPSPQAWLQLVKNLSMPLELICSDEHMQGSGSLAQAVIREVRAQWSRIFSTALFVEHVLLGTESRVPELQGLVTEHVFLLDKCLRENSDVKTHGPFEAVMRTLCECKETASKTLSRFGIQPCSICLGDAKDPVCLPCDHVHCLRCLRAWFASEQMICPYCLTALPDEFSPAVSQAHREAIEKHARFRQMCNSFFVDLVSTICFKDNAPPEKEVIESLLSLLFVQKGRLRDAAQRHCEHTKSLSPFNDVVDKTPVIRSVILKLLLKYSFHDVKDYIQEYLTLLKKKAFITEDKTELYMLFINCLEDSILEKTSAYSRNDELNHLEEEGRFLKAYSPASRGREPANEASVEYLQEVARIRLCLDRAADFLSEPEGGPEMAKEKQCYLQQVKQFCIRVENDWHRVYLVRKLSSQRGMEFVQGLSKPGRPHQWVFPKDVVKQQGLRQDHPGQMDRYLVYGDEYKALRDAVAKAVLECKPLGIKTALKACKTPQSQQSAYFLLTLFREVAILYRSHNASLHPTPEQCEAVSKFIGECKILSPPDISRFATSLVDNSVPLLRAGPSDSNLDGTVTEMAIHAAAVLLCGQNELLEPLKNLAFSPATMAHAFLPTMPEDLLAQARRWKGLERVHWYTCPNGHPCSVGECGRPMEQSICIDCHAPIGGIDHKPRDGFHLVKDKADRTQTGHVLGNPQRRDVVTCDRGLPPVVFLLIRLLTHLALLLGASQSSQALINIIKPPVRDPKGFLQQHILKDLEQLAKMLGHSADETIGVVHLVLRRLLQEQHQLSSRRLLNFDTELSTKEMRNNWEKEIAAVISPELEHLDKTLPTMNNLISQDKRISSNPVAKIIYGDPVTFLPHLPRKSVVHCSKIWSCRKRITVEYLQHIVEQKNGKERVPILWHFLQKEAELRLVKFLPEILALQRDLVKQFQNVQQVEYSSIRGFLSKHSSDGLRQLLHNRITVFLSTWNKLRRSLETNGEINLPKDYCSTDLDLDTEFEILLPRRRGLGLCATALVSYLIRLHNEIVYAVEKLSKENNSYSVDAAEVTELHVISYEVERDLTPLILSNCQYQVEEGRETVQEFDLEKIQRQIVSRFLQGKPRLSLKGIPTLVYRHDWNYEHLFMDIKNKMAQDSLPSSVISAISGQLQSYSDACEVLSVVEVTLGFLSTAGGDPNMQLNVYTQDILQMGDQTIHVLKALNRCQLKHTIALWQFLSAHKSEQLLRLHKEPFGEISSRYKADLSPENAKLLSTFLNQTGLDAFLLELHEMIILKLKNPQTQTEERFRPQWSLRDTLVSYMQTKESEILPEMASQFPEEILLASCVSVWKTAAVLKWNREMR
UniProt P28482: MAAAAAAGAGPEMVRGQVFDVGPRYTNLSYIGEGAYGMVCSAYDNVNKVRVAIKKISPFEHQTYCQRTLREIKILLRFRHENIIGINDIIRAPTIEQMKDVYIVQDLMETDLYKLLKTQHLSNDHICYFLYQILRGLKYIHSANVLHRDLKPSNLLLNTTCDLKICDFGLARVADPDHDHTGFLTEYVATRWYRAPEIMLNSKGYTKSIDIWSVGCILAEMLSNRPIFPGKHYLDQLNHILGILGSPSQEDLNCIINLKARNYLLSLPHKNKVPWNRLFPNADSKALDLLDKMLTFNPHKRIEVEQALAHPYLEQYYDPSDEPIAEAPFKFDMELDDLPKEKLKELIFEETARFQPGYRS

The chains are these.
B1: CYP51A1 (enzyme, UniProt Q16850 1-509)
chain: MAAAAGMLLLGLLQAGGSVLGQAMEKVTGGNLLSMLLIACAFTLSLVYLIRLAAGHLVQLPAGVKSPPYIFSPIPFLGHAIAFGKSPIEFLENAYEKYGPVFSFTMVGKTFTYLLGSDAAALLFNSKNEDLNAEDVYSRLTTPVFGKGVAYDVPNPVFLEQKKMLKSGLNIAHFKQHVSIIEKETKEYFESWGESGEKNVFEALSELIILTASHCLHGKEIRSQLNEKVAQLYADLDGGFSHAAWLLPGWLPLPSFRRRDRAHREIKDIFYKAIQKRRQSQEKIDDILQTLLDATYKDGRPLTDDEVAGMLIGLLLAGQHTSSTTSAWMGFFLARDKTLQKKCYLEQKTVCGENLPPLTYDQLKDLNLLDRCIKETLRLRPPIMIMMRMARTPQTVAGYTIPPGHQVCVSPTVNQRLKDSWVERLDFNPDRYLQDNPASGEKFAYVPFGAGRHRCIGENFAYVQIKTIWSTMLRLYEFDLIDGYFPTVNYTTMIHTPENPVIRYKRRSK
B2: ALDH1B1 (enzyme, UniProt P30837 18-517)
chain: RYSSAAALPSPILNPDIPYNQLFINNEWQDAVSKKTFPTVNPTTGEVIGHVAEGDRADVDRAVKAAREAFRLGSPWRRMDASERGRLLNRLADLVERDRVYLASLETLDNGKPFQESYALDLDEVIKVYRYFAGWADKWHGKTIPMDGQHFCFTRHEPVGVCGQIIPWNFPLVMQGWKLAPALATGNTVVMKVAEQTPLSALYLASLIKEAGFPPGVVNIITGYGPTAGAAIAQHVDVDKVAFTGSTEVGHLIQKAAGDSNLKRVTLELGGKSPSIVLADADMEHAVEQCHEALFFNMGQCCCAGSRTFVEESIYNEFLERTVEKAKQRKVGNPFELDTQQGPQVDKEQFERVLGYIQLGQKEGAKLLCGGERFGERGFFIKPTVFGGVQDDMRIAKEEIFGPVQPLFKFKKIEEVVERANNTRYGLAAAVFTRDLDKAMYFTQALQAGTVWVNTYNIVTCHTPFGGFKESGNGRELGEDGLKAYTEVKTVTIKVPQKNS
B3: CPEB4 (protein, UniProt Q17RY0 1-729)
chain: MGDYGFGVLVQSNTGNKSAFPVRFHPHLQPPHHHQNATPSPAAFINNNTAANGSSAGSAWLFPAPATHNIQDEILGSEKAKSQQQEQQDPLEKQQLSPSPGQEAGILPETEKAKSEENQGDNSSENGNGKEKIRIESPVLTGFDYQEATGLGTSTQPLTSSASSLTGFSNWSAAIAPSSSTIINEDASFFHQGGVPAASANNGALLFQNFPHHVSPGFGGSFSPQIGPLSQHHPHHPHFQHHHSQHQQQRRSPASPHPPPFTHRNAAFNQLPHLANNLNKPPSPWSSYQSPSPTPSSSWSPGGGGYGGWGGSQGRDHRRGLNGGITPLNSISPLKKNFASNHIQLQKYARPSSAFAPKSWMEDSLNRADNIFPFPDRPRTFDMHSLESSLIDIMRAENDTIKGRLNYSYPGSDSSLLINARTYGRRRGQSSLFPMEDGFLDDGRGDQPLHSGLGSPHCFSHQNGERVERYSRKVFVGGLPPDIDEDEITASFRRFGPLIVDWPHKAESKSYFPPKGYAFLLFQDESSVQALIDACIEEDGKLYLCVSSPTIKDKPVQIRPWNLSDSDFVMDGSQPLDPRKTIFVGGVPRPLRAVELAMIMDRLYGGVCYAGIDTDPELKYPKGAGRVAFSNQQSYIAAISARFVQLQHGEIDKRVEVKPYVLDDQLCDECQGARCGGKFAPFFCANVTCLQYYCEYCWAAIHSRAGREFHKPLVKEGGDRPRHISFRWN
B4: PTP1B (PTPN1) (enzyme, UniProt P18031 1-435)
chain: MEMEKEFEQIDKSGSWAAIYQDIRHEASDFPCRVAKLPKNKNRNRYRDVSPFDHSRIKLHQEDNDYINASLIKMEEAQRSYILTQGPLPNTCGHFWEMVWEQKSRGVVMLNRVMEKGSLKCAQYWPQKEEKEMIFEDTNLKLTLISEDIKSYYTVRQLELENLTTQETREILHFHYTTWPDFGVPESPASFLNFLFKVRESGSLSPEHGPVVVHCSAGIGRSGTFCLADTCLLLMDKRKDPSSVDIKKVLLEMRKFRMGLIQTADQLRFSYLAVIEGAKFIMGDSSVQDQWKELSHEDLEPPPEHIPPPPRPPKRILEPHNGKCREFFPNHQWVKEETQEDKDCPIKEEKGSPLNAAPYGIESMSQDTEVRSRVVGGSLRGAQAASPAKGEPSLPEKDEDHALSYWKPFLVNMCVATVLTAGAYLCYRFLFNSNT
B5: SPATA2 (protein, UniProt Q9UM82 1-520)
chain: MGKPSSMDTKFKDDLFRKYVQFHESKVDTTTSRQRPGSDECLRVAASTLLSLHKVDPFYRFRLIQFYEVVESSLRSLSSSSLRALHGAFSMLETVGINLFLYPWKKEFRSIKTYTGPFVYYVKSTLLEEDIRAILSCMGYTPELGTAYKLRELVETLQVKMVSFELFLAKVECEQMLEIHSQVKDKGYSELDIVSERKSSAEDVRGCSDALRRRAEGREHLTASMSRVALQKSASERAAKDYYKPRVTKPSRSVDAYDSYWESRKPPLKASLSLRKEPVATDVGDDLKDEIIRPSPSLLTMASSPHGSPDVLPPASPSNGPALLRGTYFSTQDDVDLYTDSEPRATYRRQDALRPDVWLLRNDAHSLYHKRSPPAKESALSKCQSCGLSCSSSLCQRCDSLLTCPPASKPSAFPSKASTHDSLAHGASLREKYPGQTQGLDRLPHLHSKSKPSTTPTSRCGFCNRPGATNTCTQCSKVSCDACLSAYHYDPCYKKSELHKFMPNNQLNYKSTQLSHLVYR
B6: SPTLC1 (enzyme, UniProt O15269 1-473)
chain: MATATEQWVLVEMVQALYEAPAYHLILEGILILWIIRLLFSKTYKLQERSDLTVKEKEELIEEWQPEPLVPPVPKDHPALNYNIVSGPPSHKTVVNGKECINFASFNFLGLLDNPRVKAAALASLKKYGVGTCGPRGFYGTFDVHLDLEDRLAKFMKTEEAIIYSYGFATIASAIPAYSKRGDIVFVDRAACFAIQKGLQASRSDIKLFKHNDMADLERLLKEQEIEDQKNPRKARVTRRFIVVEGLYMNTGTICPLPELVKLKYKYKARIFLEESLSFGVLGEHGRGVTEHYGINIDDIDLISANMENALASIGGFCCGRSFVIDHQRLSGQGYCFSASLPPLLAAAAIEALNIMEENPGIFAVLKEKCGQIHKALQGISGLKVVGESLSPAFHLQLEESTGSREQDVRLLQEIVDQCMNRSIALTQARYLEKEEKCLPPPSIRVVVTVEQTEEELERAASTIKEVAQAVLL
B7: USP15 (enzyme, UniProt Q9Y4E8 1-981)
chain: MAEGGAADLDTQRSDIATLLKTSLRKGDTWYLVDSRWFKQWKKYVGFDSWDKYQMGDQNVYPGPIDNSGLLKDGDAQSLKEHLIDELDYILLPTEGWNKLVSWYTLMEGQEPIARKVVEQGMFVKHCKVEVYLTELKLCENGNMNNVVTRRFSKADTIDTIEKEIRKIFSIPDEKETRLWNKYMSNTFEPLNKPDSTIQDAGLYQGQVLVIEQKNEDGTWPRGPSTPKSPGASNFSTLPKISPSSLSNNYNNMNNRNVKNSNYCLPSYTAYKNYDYSEPGRNNEQPGLCGLSNLGNTCFMNSAIQCLSNTPPLTEYFLNDKYQEELNFDNPLGMRGEIAKSYAELIKQMWSGKFSYVTPRAFKTQVGRFAPQFSGYQQQDCQELLAFLLDGLHEDLNRIRKKPYIQLKDADGRPDKVVAEEAWENHLKRNDSIIVDIFHGLFKSTLVCPECAKISVTFDPFCYLTLPLPMKKERTLEVYLVRMDPLTKPMQYKVVVPKIGNILDLCTALSALSGIPADKMIVTDIYNHRFHRIFAMDENLSSIMERDDIYVFEININRTEDTEHVIIPVCLREKFRHSSYTHHTGSSLFGQPFLMAVPRNNTEDKLYNLLLLRMCRYVKISTETEETEGSLHCCKDQNINGNGPNGIHEEGSPSEMETDEPDDESSQDQELPSENENSQSEDSVGGDNDSENGLCTEDTCKGQLTGHKKRLFTFQFNNLGNTDINYIKDDTRHIRFDDRQLRLDERSFLALDWDPDLKKRYFDENAAEDFEKHESVEYKPPKKPFVKLKDCIELFTTKEKLGAEDPWYCPNCKEHQQATKKLDLWSLPPVLVVHLKRFSYSRYMRDKLDTLVDFPINDLDMSEFLINPNAGPCRYNLIAVSNHYGGMGGGHYTAFAKNKDDGKWYYFDDSSVSTASEDQIVSKAAYVLFYQRQDTFSGTGFFPLDRETKGASAATGIPLESDEDSNDNDNDIENENCMHTN

These are yes or no findings as the source states them, for the method shown. In cells and extracts the contact can be indirect. Here binding means that the protein was enriched with, or labelled near, the bait; the list need not be complete. For part of these data: No binding means not detected with the bait.

For one assay, the target named is TurboID-RNF213 (UniProt Q63HN8). In words: proximity labelling.
In the case of B1, the binding result is recorded as “binds”.

In another assay the target is RNF213-TurboID (UniProt Q63HN8). The assay is described as follows: proximity labelling.
In the case of MYOF (from UniProt Q9NZM1 1-2061), the binding result was “binds”.
For the molecule “MAP4K4 (from UniProt O95819 1-1239) (enzyme)”, the binding result is on record as “binds”.
Still for that read-out and setting: the result for “ERK2 (from UniProt P28482 1-360) (enzyme)” reads “no binding”.
For the molecule B2, the binding result is recorded as “binds”.
As for B3, the binding entry is listed as “binds”.
The same measure, in the same setting: to B4 belongs “binds”; to B5, “binds”; to B6, “binds”.
Turning to B7, the binding entry is “binds”.

A further assay has the same target. In words: proximity labelling. This is another data set of the same source.
As to B4, the binding entry is “binds”.
For the molecule B5, the binding result is recorded as “binds”.
